Experimental findings from article PMC8319910 are described below.

Protein sequences, listed by entry. Tags and fused reporters are not part of them. Lines headed by an entry give the natural chain unless they say otherwise; changes in a name come on top.
UniProt P05556: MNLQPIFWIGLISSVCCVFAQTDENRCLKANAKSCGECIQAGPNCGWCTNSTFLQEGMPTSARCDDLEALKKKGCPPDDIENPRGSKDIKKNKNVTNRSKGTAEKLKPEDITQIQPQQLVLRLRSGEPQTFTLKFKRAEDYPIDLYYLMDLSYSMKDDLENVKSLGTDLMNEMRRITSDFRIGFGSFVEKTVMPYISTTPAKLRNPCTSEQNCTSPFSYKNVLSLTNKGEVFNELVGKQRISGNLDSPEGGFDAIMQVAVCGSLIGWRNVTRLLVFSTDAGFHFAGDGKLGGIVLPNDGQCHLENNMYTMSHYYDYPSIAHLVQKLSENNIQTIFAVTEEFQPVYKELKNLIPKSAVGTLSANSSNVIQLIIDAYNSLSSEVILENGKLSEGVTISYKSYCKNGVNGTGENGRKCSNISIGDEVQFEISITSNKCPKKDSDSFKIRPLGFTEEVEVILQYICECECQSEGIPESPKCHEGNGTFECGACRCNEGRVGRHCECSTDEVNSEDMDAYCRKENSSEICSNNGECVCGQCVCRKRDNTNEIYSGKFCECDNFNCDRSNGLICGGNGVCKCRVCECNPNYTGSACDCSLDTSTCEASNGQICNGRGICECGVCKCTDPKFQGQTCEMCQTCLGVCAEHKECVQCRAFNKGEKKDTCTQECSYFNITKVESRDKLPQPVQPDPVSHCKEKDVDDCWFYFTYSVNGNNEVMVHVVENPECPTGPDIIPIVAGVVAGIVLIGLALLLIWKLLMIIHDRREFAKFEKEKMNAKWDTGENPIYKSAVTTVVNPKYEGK

These are yes or no findings as the source states them, for the method shown. Binding seen in cells or lysates may run through a third protein. Some binding calls cover weakened binding; strength is not graded here.

This assay addresses T1, Neuropilin-2 (human (endogenous in BxPC-3)) (UniProt O60462).
T1 sequence: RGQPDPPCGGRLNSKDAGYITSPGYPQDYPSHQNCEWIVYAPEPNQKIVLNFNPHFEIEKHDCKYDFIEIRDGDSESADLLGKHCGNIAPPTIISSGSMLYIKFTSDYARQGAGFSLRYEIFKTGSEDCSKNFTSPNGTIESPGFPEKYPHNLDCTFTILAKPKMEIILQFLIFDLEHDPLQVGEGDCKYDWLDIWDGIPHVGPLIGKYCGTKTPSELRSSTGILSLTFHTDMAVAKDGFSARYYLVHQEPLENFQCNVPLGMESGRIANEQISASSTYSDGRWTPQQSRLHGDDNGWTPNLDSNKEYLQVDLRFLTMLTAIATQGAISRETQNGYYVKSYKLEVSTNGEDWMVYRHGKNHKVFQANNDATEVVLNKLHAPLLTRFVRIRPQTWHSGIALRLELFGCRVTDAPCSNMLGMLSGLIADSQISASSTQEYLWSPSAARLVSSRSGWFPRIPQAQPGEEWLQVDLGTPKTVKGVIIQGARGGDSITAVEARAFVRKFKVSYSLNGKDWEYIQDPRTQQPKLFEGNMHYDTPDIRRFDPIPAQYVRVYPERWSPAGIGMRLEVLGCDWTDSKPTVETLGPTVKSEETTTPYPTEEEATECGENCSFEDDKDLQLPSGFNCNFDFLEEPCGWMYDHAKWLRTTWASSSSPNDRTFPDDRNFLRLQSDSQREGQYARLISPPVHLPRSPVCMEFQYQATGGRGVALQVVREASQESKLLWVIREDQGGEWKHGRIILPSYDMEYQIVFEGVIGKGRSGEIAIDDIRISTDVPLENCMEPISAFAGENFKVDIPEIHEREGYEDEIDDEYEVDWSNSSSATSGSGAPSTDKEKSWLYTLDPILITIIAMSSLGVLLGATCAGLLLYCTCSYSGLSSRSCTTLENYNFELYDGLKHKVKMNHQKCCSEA
In words: co-IP; BxPC-3 cell lysate; total protein incubated with 1 μg NRP2 antibody and 10 μL protein A/G beads overnight at 4°C, blot with anti-integrinβ1; cells pre-incubated with PBS (-) or N2E4 for 48 h.

In the case of “integrinβ1 (from UniProt P05556 21-798) (receptor)”, the binding result is “binds”.
